Experimental findings from PubChem BioAssay AID248 (DTP/NCI, 2004) are described below.

The list shows only some results of the screen, not a fair sample: it gathers tests that were run many times, whatever their T/C, doses with no T/C, and many T/C values between a quarter and a half above the control. Other doses and runs of a compound stand elsewhere. T/C gives the treated animals as a percentage of the vehicle group. Some entries give survivors of the animals treated and no T/C: the source files T/C as zero there, which appears to mark a toxic dose or a test without result, not a measured value. Some survivor counts are full or nearly so, which does not show that the dose was tolerated: the source hardly ever lists a survival T/C far under the control, and the zero likely stands for such cases as well. Counts of survivors are from the toxicity check (mostly the fifth day) where no day follows; animals may have died later. Schedules are NCI's codes, taken here to give the interval after Q, in days (D) or hours (H), and the number of doses after X. Some entries were tested several times; the results are listed from low to high. Some schedules carry Z or #; the key to these is not given. For survival time, this PubChem deposit counts one and a half times the control or more as active, and values a quarter to a half above the control carry no call in these data; other NCI protocols may use other cut-offs. Signs of the kind (2×) say how often a value occurs here.

The test system of this test is L1210 leukemia ip in BDF1 mice, survival T/C. Kind of test: NCI In Vivo Anticancer Drug Screen. Data for tumor model L1210 Leukemia (intraperitoneal) in B6D2F1 (BDF1) mice. Conditions: T/C endpoint: mean survival time, higher T/C = longer survival.
Setting [1] is: dose: 200.0 mg/kg/injection, schedule: Q04DX002 (ip), vehicle: saline.
Setting [2] is: dose: 400.0 mg/kg/injection, schedule: Q04DX002 (ip), vehicle: saline.
Setting [3] is: dose: 300.0 mg/kg/injection, schedule: Q01DX001 (ip), vehicle: carboxymethylcellulose (CMC).
Where [4] appears, read: dose: 50.0 mg/kg/injection, schedule: Q01DX009 (ip), vehicle: saline with Tween-80.
Setting [5] is: dose: 100.0 mg/kg/injection, schedule: Q01DX009 (ip), vehicle: saline with Tween-80.
The mark [6] stands for this setting: dose: 200.0 mg/kg/injection, schedule: Q01DX001 (ip), vehicle: saline with Tween-80.
The mark [7] stands for this setting: dose: 400.0 mg/kg/injection, schedule: Q01DX001 (ip), vehicle: saline with Tween-80.
Setting [8] is: dose: 200.0 mg/kg/injection, schedule: Q04DX003 (ip), vehicle: Klucel (hydroxypropylcellulose) (HPC).
The mark [9] stands for this setting: dose: 400.0 mg/kg/injection, schedule: Q04DX003 (ip), vehicle: Klucel (hydroxypropylcellulose) (HPC).
[10] abbreviates: dose: 300.0 mg/kg/injection, schedule: Q01DX001 (ip), vehicle: saline.
Setting [11] is: dose: 400.0 mg/kg/injection, schedule: Q01DX009 (ip), vehicle: saline.
Where [12] appears, read: dose: 400.0 mg/kg/injection, schedule: Q01DX009 (ip), vehicle: saline with Tween-80.
The mark [13] stands for this setting: dose: 200.0 mg/kg/injection, schedule: Q01DX001 (ip), vehicle: saline.
[14] abbreviates: dose: 400.0 mg/kg/injection, schedule: Q01DX001 (ip), vehicle: saline.
Setting [15] is: dose: 100.0 mg/kg/injection, schedule: Q04DX003 (ip), vehicle: saline with Tween-80.
Where [16] appears, read: dose: 200.0 mg/kg/injection, schedule: Q04DX003 (ip), vehicle: saline with Tween-80.
Setting [17] is: dose: 400.0 mg/kg/injection, schedule: Q04DX003 (ip), vehicle: saline with Tween-80.
Where [18] appears, read: dose: 400.0 mg/kg/injection, schedule: Q01DX009 (ip), vehicle: Klucel (hydroxypropylcellulose) (HPC).
Where [19] appears, read: dose: 100.0 mg/kg/injection, schedule: Q04DX002 (ip), vehicle: Klucel (hydroxypropylcellulose) (HPC).
Setting [20] is: dose: 200.0 mg/kg/injection, schedule: Q04DX002 (ip), vehicle: Klucel (hydroxypropylcellulose) (HPC).
Where [21] appears, read: dose: 400.0 mg/kg/injection, schedule: Q04DX002 (ip), vehicle: Klucel (hydroxypropylcellulose) (HPC).

As to `NC1=NCc2ccccc21`, the survivor count (dose: 100.0 mg/kg/injection, schedule: Q04DX002 (ip), vehicle: saline) is 1 of 3; the survivor count under setting [1] is 0 of 3; the survivor count under setting [2] is 0 of 3.

Turning to `O=C1CCCCCCCS(=O)(=O)C1`, the survivor count under setting [3] is 0 of 6.

As to `[N-]=[N+]=NCc1nnc2ncnc(N)c2n1`, the survivor count reads like this: under setting [4], 1 of 6; under setting [5], 0 of 6; under setting [6], 2 of 6; under setting [7], 0 of 6.

With `Cc1c[n+]([O-])ccc1N=Nc1ccc(N(C)C)cc1`, the survivor count under setting [8] was 6 of 6 and the survivor count under setting [9] is on record as 4 of 6.

Regarding `O=S(=O)([O-])Sn1c(-c2ccccc2)c[n+]2ccccc12`, the survivor count was 2 of 6 (dose: 75.0 mg/kg/injection, schedule: Q01DX001 (ip), vehicle: saline); 0 of 6 (dose: 150.0 mg/kg/injection, schedule: Q01DX001 (ip), vehicle: saline); 0 of 6 under setting [10].

Take `CN(C)N=Nc1ccc2ncccc2c1[N+](=O)[O-]`: under “dose: 400.0 mg/kg/injection, schedule: Q01DX001 (ip), vehicle: other”, the survivor count was 1 of 6.

With `CCN(O)C(N)=O`, the T/C (dose: 176.0 mg/kg/injection, schedule: Q01DX009 (ip), vehicle: saline) is 129 and 144 % of control; the T/C (dose: 268.0 mg/kg/injection, schedule: Q01DX009 (ip), vehicle: saline) is 140 % of control; the T/C under setting [11] was 148 % of control.

Turning to `CS(=O)(=O)C(=C(N1CCCCC1)N1CCCCC1)S(=O)(=O)Cc1ccccc1`, the survivor count under setting [11] is 6 of 6.

As for `O=C(CCl)Nc1ccc(Br)cc1`, the survivor count under setting [12] was 0 of 6.

As to `O=P(N(CCCl)CCCl)(N1CCCCC1)N1CCCCC1`, under “dose: 400.0 mg/kg/injection, schedule: Q01DX Z (ip), vehicle: saline”, the survivor count is recorded as 2 of 6.

For `Cc1[nH]c2cc(O)c(O)c(C)c2c1C`, the survivor count is recorded as 0 of 4 under setting [13] and 1 of 4 under setting [14].

`CC1(C)S[C@@H]2[C@H](NC=O)C(=O)N2[C@H]1C(=O)OCc1ccccc1`: under setting [3], the survivor count was 6 of 6.

For the molecule `O=C(O)C1C(c2c3ccc(=O)c(O)c-3oc3c(O)c(O)ccc23)C2(Cl)C(Cl)=C(Cl)C1(Cl)C2(Cl)Cl` (configuration not stated), the survivor count (dose: 200.0 mg/kg/injection, schedule: Q01DX009 (ip), vehicle: alcohol) was 6 of 6 and the survivor count (dose: 400.0 mg/kg/injection, schedule: Q04DX003 (ip), vehicle: alcohol) was 2 of 6.

Regarding `NC1CC[N-]CC1.NC1CC[N-]CC1.NC1CC[N-]CC1.NC1CC[N-]CC1.[Cl][Rh][Cl]`, the survivor count runs as follows: under setting [15], 1 of 6; under setting [16], 0 of 6; under setting [17], 0 of 6.

In the case of `NC(=O)C1C(=O)c2cccc3c2C1(Br)C(Br)CCC3` (configuration not stated), the survivor count is, setting by setting: under setting [13], 0 of 4; under setting [14], 0 of 4.

Take `COc1ccc(N(N=O)C(C)C)cc1`: the survivor count under setting [4] is given as 3 of 3.

For the molecule `O=c1[nH]c2ccsc2c(=O)n1O`, the survivor count (dose: 400.0 mg/kg/injection, schedule: Q04DX003 (ip), vehicle: saline) is 5 of 6.

For `CC(=O)C(C)CCc1ccccn1` (configuration not stated), under “dose: 500.0 mg/kg/injection, schedule: Q01DX Z (ip), vehicle: methylcellulose (MC)”, the survivor count is 0 of 6.

Turning to `CC1=NC(C#N)=C(C#N)N=C(C)C1`, the survivor count reads like this: (dose: 75.0 mg/kg/injection, schedule: Q01DX009 (ip), vehicle: Klucel (hydroxypropylcellulose) (HPC)) 0 of 6; (dose: 200.0 mg/kg/injection, schedule: Q01DX009 (ip), vehicle: Klucel (hydroxypropylcellulose) (HPC)) 0 of 6; under setting [18], 0 of 6.

As to `Clc1ccc(CSc2ncc(Br)c(Nc3cc(Cl)ccc3Cl)n2)cc1`, the survivor count (dose: 25.0 mg/kg/injection, schedule: Q01DX Z (ip), vehicle: methylcellulose (MC)) is 5 of 6 and the survivor count (dose: 100.0 mg/kg/injection, schedule: Q01DX Z (ip), vehicle: methylcellulose (MC)) is 6 of 6.

In the case of `NC(CC(O)c1ccccc1)c1ccccc1` (configuration not stated), the survivor count (dose: 150.0 mg/kg/injection, schedule: Q01DX001 (ip), vehicle: carboxymethylcellulose (CMC)) was 0 of 6 and the survivor count under setting [3] is given as 0 of 6.

With `Cc1cc(=O)n(C)c2ccccc12`, the survivor count is given as 2 of 4 (dose: 400.0 mg/kg/injection, schedule: Q01DX001 (ip), vehicle: carboxymethylcellulose (CMC)) and 0 of 6 under setting [18].

For `O=C(Nc1ccc(F)cc1)Nc1nccs1`, the T/C is 102, 107, 110 % of control under setting [19]; 100, 104, 108, 112 % of control under setting [20]; 98, 105 (2×), 125 % of control under setting [21]. Also, the survivor count reads like this: under setting [19], 3 of 3; under setting [18], 3 of 6.

Consider `COc1ccc(C(CC(=O)c2ccccc2)CC(=O)c2ccccc2)cc1`, for which the survivor count is, setting by setting: under setting [15], 5 of 6; under setting [16], 5 of 6.

As for `Cc1ccc(S(=O)(=O)N(CCC(=O)O)c2ccccc2)cc1`, the survivor count under setting [12] is on record as 5 of 6.

`O=S=Nc1cc(Cl)c(Cl)cc1Cl`: the survivor count under setting [1] is listed as 3 of 3 and the survivor count under setting [2] was 3 of 3.

As to `Cc1ccc(NC(=O)c2c(Cl)c(Cl)c(Cl)c(Cl)c2C(=O)O)cc1Cl`, under setting [18], the survivor count is 4 of 6.

With `O=C(/C=C/c1ccccc1)N1CC2CCC(CC2)C1`, under setting [17], the survivor count was 2 of 6.

With `Cc1sc(Cc2ccccc2)nc1-c1ccc(N=Cc2ccc(N(CCOS(C)(=O)=O)CCOS(C)(=O)=O)cc2)cc1`, the survivor count runs as follows: under setting [16], 6 of 6; under setting [17], 5 of 6.

For `Cc1cc2oc(C)[n+](Cc3ccccc3)c2cc1C`, the survivor count under setting [12] was 4 of 6 and 5 of 6.

On to `CC(=O)Nc1ccc2c(c1)C(c1ccccc1)=NCC(=O)N2`, for which the T/C (dose: 225.0 mg/kg/injection, schedule: Q01DX Z (ip), vehicle: carboxymethylcellulose (CMC)) was 133 % of control. The survivor count (dose: 337.0 mg/kg/injection, schedule: Q01DX Z (ip), vehicle: carboxymethylcellulose (CMC)) was 5 of 6.

Consider `CSCC1OC(n2cnc3c(N)nc(Cl)nc32)C(O)C1O` (configuration not stated), for which the survivor count is recorded as 1 of 6 under setting [4], 0 of 6 under setting [5], 2 of 6 under setting [6] and 2 of 6 under setting [7].

On to `O=C(O)c1oc(Br)cc1Br`, for which the survivor count is recorded as 4 of 6 (dose: 100.0 mg/kg/injection, schedule: Q04DX003 (ip), vehicle: other); 5 of 6 (dose: 200.0 mg/kg/injection, schedule: Q04DX003 (ip), vehicle: other); 3 of 6 (dose: 400.0 mg/kg/injection, schedule: Q04DX003 (ip), vehicle: other).

In the case of `O=C(CI)Nc1ccc(OC(=O)CI)cc1`, the survivor count is recorded as 1 of 6 (dose: 100.0 mg/kg/injection, schedule: Q04DX003 (ip), vehicle: Klucel (hydroxypropylcellulose) (HPC)); 0 of 6 under setting [8]; 0 of 6 under setting [9].

Consider `C[n+]1cccc2cccc(O)c21`, for which the survivor count is, setting by setting: under setting [20], 1 of 3; under setting [21], 1 of 3.

Regarding `CC1(C)OC2C(CO)OC(n3cnc4c(=O)[nH]cnc43)C2O1` (configuration not stated), the survivor count under setting [10] is on record as 0 of 6.
